# Data as given in PubChem BioAssay AID504467 (National Center for Advancing Translational Sciences (NCATS), 2011).
# Screen size: about 330,000 compounds; about 7,700 (2.3%) were called active. Inconclusive results, whose numbers are uncertain, are shown with a selection of clear calls. Calls follow the shape of the dose curve; as a rule, active = well fitted inhibition curve with a large enough effect; inconclusive = small, poorly fitted or top-dose-only effect, or effect the other way; inactive = flat fitted curve, though single readings scatter. Potencies of inconclusive entries are doubtful fits and often do not repeat.
# Assay: qHTS screen for small molecules that inhibit ELG1-dependent DNA repair in human embryonic kidney (HEK293T) cells expressing luciferase-tagged ELG1; also: nearly all actives have a fitted effect of over 55% in size
# Conditions: HEK293T ELG1-luciferase reporter, luminescence, 16 h, DNA damage induced by 5-fluorouridine; activity change, negative = inhibition: at 46.1 µM (top of the series)
# How it was run: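 Overnight (16 hr) co-exposure of 2,000 cells/well to 5-fluorouridine and compound at 37 °C preceded detection. Luciferase was quantified via ONE-Glo luminescence; loss of signal denotes inhibition.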
# % is scaled to controls: 0 for no effect and ±100 for the full control effect; potency is read from the fitted curve at half-maximal effect.
Compound,Potency,"activity change, negative = inhibition"
C=CC[C@H](CC(=O)N(CCO)Cc1ccccc1)C(=O)N[C@H](COC(=O)[C@@H](CC=C)CC(=O)OC(C)(C)C)Cc1ccccc1,"inconclusive: 18.3 µM [inhibitor, single point]",
Cc1nc(SC(C)C(=O)NCC2CCCO2)c2cc(-c3ccccc3)sc2n1 (stereo not drawn),"inconclusive: 1.46 µM [activator, partial curve]",
CC(C)(C)c1cc(C(=S)N2CCCC2)cc(C(C)(C)C)c1O,,inactive: 9.34%
CSc1ncccc1C(=O)OCc1ccccc1,"inconclusive: 16.4 µM [activator, partial curve]",
CCC(=O)Nc1cccc(NC(=O)COc2ccc(OC)cc2)c1,"inconclusive: 29.1 µM [activator, partial curve, poor fit]",
Cc1cccc(-c2cc(C(=O)Nc3cccnc3)c3ccccc3n2)c1,"inconclusive: 14.6 µM [inhibitor, single point]",
CCNc1nc(OC)nc(N(OC)S(=O)(=O)c2ccc(C)cc2)n1,"inconclusive: 16.4 µM [activator, single point]",
CC1(c2ccc3noc(-c4cccc(F)c4)c3c2)OCCO1,"inconclusive: 18.3 µM [inhibitor, single point]",
CCOc1ccc(NC(=O)N(CCN2CCOCC2)Cc2ccc3c(c2)CCCN3CC)cc1,"inconclusive: 5.17 µM [inhibitor, partial curve, poor fit]",
CC(C)[C@H](NC(=O)c1ccccc1F)C(=O)OCCN1C(=O)c2ccccc2C1=O,"inconclusive: 20.6 µM [inhibitor, single point]",
C=CCn1c(SCC(=O)Nc2ccc(C(=O)O)cc2)nc2scc(-c3ccccc3)c2c1=O,,inactive: -1.36%
COc1cccc(CN(C)S(=O)(=O)c2cccs2)c1,,inactive: 12.9%
NC(=O)/C=C/C(=O)Nc1ccc(Cl)cc1,"inconclusive: 25.9 µM [activator, partial curve, poor fit]",
CC1CN(C(=O)c2cccc(COc3ccccc3Cl)c2)CC(C)O1 (stereo not drawn),"inconclusive: 4.61 µM [activator, partial curve]",
COc1ccc(C(CNC(=O)c2ccc(S(=O)(=O)N3CC(C)CC(C)C3)cc2)N(C)C)cc1 (stereo not drawn),"inconclusive: 16.4 µM [inhibitor, single point]",
CN(Cc1ccccc1)C(=O)c1cc2ccccc2o1,"inconclusive: 16.4 µM [activator, single point]",
Cc1ccc2nc(N/C(=N/S(=O)(=O)c3ccc(F)cc3)c3ccccc3)sc2c1,"inconclusive: 5.8 µM [activator, full curve, poor fit]",
C=CCNc1nc(-c2c(C)nc3ncccn23)cs1,,inactive: -1.8%
CC(Cc1ccccn1)NC(=O)c1ccc(OC2CCN(Cc3ccccn3)CC2)cc1 (stereo not drawn),"inconclusive: 18.3 µM [activator, partial curve]",
NC(N)=N/N=C/c1cccc(Cl)c1Cl,,inactive: 13.4%
Cc1ccccc1C1=Nn2c(nnc2-c2ccco2)SC1,"inconclusive: 29.1 µM [inhibitor, single point]",
CCN(CC)c1ccc(C(=O)OCC(=O)Nc2ccc3[nH]c(=O)[nH]c3c2)cc1,,inactive: -10.9%
Cn1c(=O)c2c(SCc3ccccn3)nc(CC(C)(C)C)nc2n(C)c1=O,"inconclusive: 32.6 µM [inhibitor, single point]",

Compound,Potency,"activity change, negative = inhibition"
COc1cccc(/C=N/n2c(-c3ccco3)nc3ccccc3c2=O)c1,active: 18.4 µM,
O=C(NCCN1C(=O)S/C(=C\c2ccc(OC(F)F)cc2)C1=O)[C@@H]1CCCN1C(=O)c1cccs1,"inconclusive: 11.6 µM [inhibitor, partial curve, poor fit]",
CCN(CC)S(=O)(=O)c1ccc(NC(=O)c2ccc(CN3CCOCC3)cc2)cc1,"inconclusive: 5.8 µM [inhibitor, partial curve, poor fit]",
COc1ccc(CNC(=O)c2ccc3ccccc3n2)cc1OC,active: 16.4 µM,
COc1ccc(Cl)cc1NC(=O)COC(=O)c1c(-c2ccccc2)noc1C,"inconclusive: 18.3 µM [inhibitor, single point]",
O=C(/C(=C/c1ccncc1)n1ccnc1)c1ccc(Cl)cc1Cl,"inconclusive: 20.6 µM [inhibitor, single point]",
O=C(OCCOc1ccccc1)c1n[nH]c2ccccc12,"inconclusive: 10.3 µM [activator, partial curve]",
C#CCO[C@@H]1C[C@H](n2cnc3c(NC(=O)c4ccccc4)ncnc32)O[C@@H]1CO,"inconclusive: 9.2 µM [activator, partial curve]",
CCOc1cc(/C=N/N2C(=O)NC3(CCCCC3)C2=O)cc(Br)c1O,"inconclusive: 18.3 µM [inhibitor, partial curve, poor fit]",
CC1(C)Nc2ccc(O)cc2-c2c1ssc2=S,active: 11.6 µM,
COc1cccc(/C=N/NC(=O)C(=O)N2CCCCCC2)c1O,"inconclusive: 14.6 µM [inhibitor, partial curve, poor fit]",
Cc1csc(NC(=O)CSc2nnc(-c3ccc(S(=O)(=O)N4CCCC4)cc3)o2)n1,,inactive: -19.2%
CCCC(=O)NC(c1ccccc1)c1ccc2cccnc2c1O (stereo not drawn),"inconclusive: 4.61 µM [inhibitor, single point]",
Cc1cccc(N(C(=O)CCC(=O)Nc2cc(C)on2)C(C(=O)NC2CCCC2)c2ccccc2)c1 (stereo not drawn),,inactive: -0.456%
CN(CC(=O)Nc1ccccc1Br)c1ncnc2sccc12,active: 11.6 µM,
COc1ccc(Cl)cc1NC(=O)CN(C)C(=O)c1cc2ccccc2cc1O,,inactive: -7.56%
CC(C)C(NS(=O)(=O)c1ccc2c(c1)OCCCO2)C(=O)O (stereo not drawn),"inconclusive: 18.4 µM [activator, single point]",
COC(C)(C)[C@H](O)COc1c2ccoc2cc2oc(=O)ccc12,,inactive: 11.6%
C=C(c1ccccc1C)[n+]1ccccc1,,inactive: 17.2%
CCOC(=O)c1c(NC(=O)c2nn(CC)cc2Br)c(C#N)cn1-c1ccccc1,"inconclusive: 11.2 µM [inhibitor, partial curve, poor fit]",
COc1ccccc1C(=O)NC1CCCCCCC1,"inconclusive: 20.6 µM [activator, single point]",
CCS(=O)(=O)n1nc(-c2ccc(OC)cc2)nc1SC,"inconclusive: 7.31 µM [activator, single point]",
Cc1ccsc1/C=N/NC(=O)c1ccc2ccccc2c1,"inconclusive: 7.3 µM [activator, partial curve]",

# 3 entries from above, with bars between the fields.
Compound | Potency | activity change, negative = inhibition
CC1(C)Nc2ccc(O)cc2-c2c1ssc2=S | active: 11.6 µM | 
COc1cccc(/C=N/NC(=O)C(=O)N2CCCCCC2)c1O | inconclusive: 14.6 µM [inhibitor, partial curve, poor fit] | 
Cc1csc(NC(=O)CSc2nnc(-c3ccc(S(=O)(=O)N4CCCC4)cc3)o2)n1 |  | inactive: -19.2%

# The list continues.

Compound,Potency,"activity change, negative = inhibition"
CSc1ccccc1NC(=S)N/N=C/c1cccn1Cc1cccc(C)c1,"inconclusive: 29.1 µM [inhibitor, single point]",
O=C(Nc1ccc(F)c(Cl)c1)Nc1cnccn1,"inconclusive: 32.6 µM [inhibitor, partial curve, poor fit]",
Cc1nc(C(=O)NCc2ccccc2)sc1C1(C)CC(c2cccc([N+](=O)[O-])c2)=NO1 (stereo not drawn),"inconclusive: 20.6 µM [inhibitor, single point]",
O=S1(=O)N=C2CCCCCN2C(c2ccccc2)N1 (stereo not drawn),,inactive: 9.18%
Cc1ccc(-c2nc(C(=O)NCCCN3CCOCC3)cc3c2[nH]c2ccccc23)cc1,"inconclusive: 25.9 µM [inhibitor, single point]",
Nc1ccn([C@@H]2O[C@H](CO)[C@@H](O)[C@@H]2O)c(=O)n1,,inactive: -1.18%
COc1ccc(S(=O)(=O)N(CCc2ccccc2)CC(=O)N/N=C/c2ccc3c(c2)OCO3)cc1,active: 16.4 µM,
O=C1c2ccccc2S(=O)(=O)N1CC1CC(c2ccc(Cl)cc2)=NO1 (stereo not drawn),"inconclusive: 7.31 µM [activator, partial curve]",
CCCCC(CC)C(=O)Nc1cc(C(=O)NCCC)ccc1N1CCC2(CC1)CC(c1cccc(Br)c1)=NO2 (stereo not drawn),,inactive: -3.62%
N#Cc1ccc(-c2ccc(OCC(O)CN3CCCCC3)cc2)cc1 (stereo not drawn),"inconclusive: 3.26 µM [activator, partial curve, poor fit]",
Cc1noc(C)c1S(=O)(=O)N1CCCCC1,,inactive: -0.294%
COCCn1ccc2c(OCC(=O)NCCc3ccc(OC)c(OC)c3)cccc2c1=O,"inconclusive: 25.9 µM [inhibitor, single point]",
CC(=O)c1ccc(NC(=O)c2ccc3nc(C)sc3c2)cc1,"inconclusive: 23.1 µM [activator, partial curve]",
O=C(C1Cc2ccccc2CN1S(=O)(=O)c1ccc(F)cc1)N1CCCCC1 (stereo not drawn),,inactive: -4.04%
O=c1c2cnn(-c3ccc(F)cc3)c2ncn1Cc1ccccn1,"inconclusive: 10 µM [inhibitor, partial curve, poor fit]",
Cc1cc(C)n2nc(SCC(=O)c3c(N)n(CC(C)C)c(=O)n(C)c3=O)nc2n1,"inconclusive: 13 µM [inhibitor, partial curve]",
CCOc1ccc(S(=O)(=O)N2CCC(C(=O)N3CCc4ccccc4C3)CC2)cc1,"inconclusive: 18.3 µM [inhibitor, partial curve, poor fit]",
COCc1cc(=O)[nH]c(/N=C(\N)Nc2cccc(C)c2)n1,,inactive: -10.6%
CCc1ccc(/C(C)=N\Nc2ccc([N+](=O)[O-])cc2)cc1,"inconclusive: 25.9 µM [activator, single point]",
O=C(NCc1ccccc1)c1ccc2c(c1)OCCO2,"inconclusive: 29.1 µM [activator, single point]",
Cc1cccc(N2CCN(S(=O)(=O)c3ccc(-c4cc(C)no4)s3)CC2C)c1 (stereo not drawn),"inconclusive: 25.9 µM [activator, partial curve, poor fit]",
O=c1nc(Nc2ccccc2)oc2ccccc12,"inconclusive: 18.3 µM [activator, partial curve]",
